These are yes or no findings as the source states them, for the method shown. Some binding calls cover weakened binding; strength is not graded here. Where a sequence is shown, tags or fusion partners need not be part of it.
T1: AIPP3, full-length, yeast two-hybrid fusion (Arabidopsis) (UniProt Q8RXT5)
T1 sequence: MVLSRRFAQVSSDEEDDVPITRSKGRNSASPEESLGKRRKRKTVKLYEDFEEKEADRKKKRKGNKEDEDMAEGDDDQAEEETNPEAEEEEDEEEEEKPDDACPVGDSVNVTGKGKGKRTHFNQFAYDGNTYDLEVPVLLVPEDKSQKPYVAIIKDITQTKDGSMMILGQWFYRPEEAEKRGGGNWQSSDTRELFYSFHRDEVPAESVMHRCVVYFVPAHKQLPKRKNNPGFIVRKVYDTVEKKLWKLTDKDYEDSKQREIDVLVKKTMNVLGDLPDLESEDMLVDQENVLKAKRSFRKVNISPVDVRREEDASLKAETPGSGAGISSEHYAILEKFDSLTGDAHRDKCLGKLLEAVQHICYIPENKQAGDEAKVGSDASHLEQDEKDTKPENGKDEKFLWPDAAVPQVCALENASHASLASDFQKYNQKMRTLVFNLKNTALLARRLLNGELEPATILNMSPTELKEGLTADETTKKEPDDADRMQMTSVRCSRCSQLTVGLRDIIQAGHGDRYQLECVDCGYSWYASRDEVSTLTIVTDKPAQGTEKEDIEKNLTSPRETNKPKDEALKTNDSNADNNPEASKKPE

T2: CPL2, full-length, yeast two-hybrid fusion (Arabidopsis) (UniProt Q5YDB5)
T2 sequence: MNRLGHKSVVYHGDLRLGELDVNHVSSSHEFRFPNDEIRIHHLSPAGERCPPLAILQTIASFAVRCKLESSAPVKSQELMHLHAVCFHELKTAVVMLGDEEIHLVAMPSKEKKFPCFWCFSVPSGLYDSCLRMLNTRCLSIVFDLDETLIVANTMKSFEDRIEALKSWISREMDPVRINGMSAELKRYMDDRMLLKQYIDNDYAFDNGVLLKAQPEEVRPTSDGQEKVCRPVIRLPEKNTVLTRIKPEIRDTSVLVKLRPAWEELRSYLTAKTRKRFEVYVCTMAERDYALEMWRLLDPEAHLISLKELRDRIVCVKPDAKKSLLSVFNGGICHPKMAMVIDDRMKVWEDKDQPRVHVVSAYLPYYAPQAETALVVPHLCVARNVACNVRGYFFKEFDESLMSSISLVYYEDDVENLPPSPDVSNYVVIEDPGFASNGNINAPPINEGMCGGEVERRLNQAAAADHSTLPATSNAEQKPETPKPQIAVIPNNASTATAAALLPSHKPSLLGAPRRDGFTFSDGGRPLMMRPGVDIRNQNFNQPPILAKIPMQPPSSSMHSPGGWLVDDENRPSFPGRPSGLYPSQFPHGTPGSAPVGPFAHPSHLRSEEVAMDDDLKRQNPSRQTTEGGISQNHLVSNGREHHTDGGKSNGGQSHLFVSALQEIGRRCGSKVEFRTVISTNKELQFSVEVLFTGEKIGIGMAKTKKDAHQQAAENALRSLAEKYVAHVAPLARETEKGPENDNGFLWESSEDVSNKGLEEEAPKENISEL

T3: ASI1-IMMUNO… PROTEIN 3 (AIPP3), epitope-tagged in transgenic Arabidopsis (Arabidopsis) (UniProt Q8RXT5)
T3 sequence: T1 sequence

B1: AIPP2, full-length, yeast two-hybrid fusion (protein, UniProt F4IYH6 1-994)
chain: MADRRVGNRPMGRRGRLEIQSGTCNVCSAPCSSCMHHNAEFSGSKSDESSDENSHGVLASQCSFNGDNLLRSSGVNAPGSSHNTSSEASHLVNSNHDTSSENAESKEIIRSSDISHGPLLDRPHKDQDSMKVDSCNDHQARSTLGQGKVKEKSGAKNNEEKKNTLTGSSKHSGPRVGKSGENVLLNKADESNTSAMSDSESENDPEMLELDVKVCDTCGDAGREDLLAICSRCSDGAEHTYCMRVMLKKVPKGYWLCEECKFAEKAEKHKLETKRKRESEVNVNTQISSKRHIDKFEAVPDSKRLAVGAQIGSPKRSVLPRMSTLSRETSFKGLEKPTRKLAHYSSFNSHSSDDTESTRSTDSQLQSPKGSFLKSNSFNSLSSRSKVRPVDDDMLPRQKTGNENSSLEVKEGFSKNVGKSMSSRCIDVGSSNCNDSKVKGSKQLKDWSTEANPSASISRGNSSIPYAKSPRDLKDLQSDGKQGSLSKQARHLSRNRLEDIVASVGDSSKNEKCSSSEQISSEAKCKDELAQVDGVPRSREFREAGEKTKDAVGNHQKRNIGEDNNKGNRLRAAVDAALRKKPSFSKNRGLEQSDLPPVSNVDSGCNKALKCLSSKVPVIRDWPVGFQGLPGGHPNLRTDKQTNTVNEKQFTLAGTDATTASQSVEPEVNDPSVQSVMRDLPVAAPNVLSTTSAIPKPEYIWQGDLEVQKSRNLSAMHSGIQAYLSTLASPKVVEVVKQFPEKVTLNEVPRLSSWPAQFQDTGAKEQHVALFFFAKDIESYEKNYKPLVDNMIQKDLALKGNLEGVELLIFASNQLPQDCQRWNMLFFLWGVFRGKKESCSNPPKNTPLPASCVSPNRDTFRHENPSNKKSLTDRTLSRMQSCMKEEDAKEGKACSGTEKENAFSVSYGEGEVDVETEEGEIGVSPQLKYEKTAGPGTVKSADMNQRVNVDDLNKEGLCEGPANKKLKTVTGVETGCSIVRRDTSVHKFASRKFV
B2: AIPP2, epitope-tagged in transgenic Arabidopsis (protein, UniProt F4IYH6 1-994)
chain: B1 chain
B3: PARALOG OF AIPP2 (PAIPP2), epitope-tagged in transgenic Arabidopsis (protein, UniProt F4KE59 1-1311)
chain: MADRRVGKRQMGQRGFSKVESGTCNVCSAPCSSCMHRNVGFTGSKLDESSDENCHGVVGSQCSVNEDDLLPSSMVNAHKSLNNTASEASNLVNSSHDALSENAESKETIRCSGISDDSGAAAMTSKPSLSGSRMKHKVSASANMLDQSSNCIEDQEDGILSADRAKQLKSGCSNNEIGNKDLADGSALNSDPIPGGSRKDEVKLESLQNPSSNHDDRVSSEKGNFKEKSRPGGNKERQEPSVEGSTRSGENRKDGKSSKSSSSNSSAVSESESDDSEMVEHDVKVCDICGDAGREDLLAICSGCSDGAEHTYCMREMLDEVPEGDWLCEECAEEAEKQKQEAKRKRETEVTFNTYSSGKRHADKIEAAPDAKRQVVEASTGSPKKSILPRVGALSRETSFKGLDRLRGKLNHQTSFSDDTESARSAGSQLQPPKGAFLKSSSFNCSSSKPKVQLMDDAIHPRQKTGKEDTALDLKVGGFRNVGKSMPSRTTDAGNSGGSDSQAKMLGSKVYHSQEGKSLKQVKDRNREANASASSIDQKLKSRGNSSVSHANNNRDLKGLQSDGKRGNLTKQVSNLSRNRLENSVVSGGDISTNEKCSASEQSSSQADCKDELPSTSCTGEGMPNHGTVALQDGLPRSRVPREVGKKSKEAFSKRQRSSLLAGAKGLPSSQKGGQTAESSDTSGVSDSDLSTTKNVKEDLNKGNRLRAAVDAALRKKPSFGKNRVLEQSDASLVANVDSSSEKTLRNQLPSKMHKNHVSHEGLQGGHPILWPTSDPYKQTIVTNEKQLIFPGADTIPSRLVEPEVSFPAVKPVMRDLPLVPSPVMLRSSAIPDHEFIWQGDLEVRKIINQSAMHSGIQAHLSTLASPRVAEVVNKFPETFSLNEVPRKSTWPTQFEKLGTKEAHIALFFFAKDTESYERNYKPLVDNMIKNDLALKGNLDNVDLLIFASNQLPSNCQRWNMLYFLWGVFQGRKETNPQKNTSLPTSNVLPRDRDPKELCQTSSPSKHLEKGSSLRESSSNGIETRNGTDARSHENPNNRESSIERSPSKKEDIALKVEEAGVNHIPPQVTGSNSGDSLVRKVQKVEEQELGGRKDLPLTVMGSGIQSHGQDNPLEKDLNSSQASHRKRPLWELSNPANENSSAINQKVELNNDGLCEGSPNKKLKTENGSSSLCRDTSGHDSGIMKKSPKVVFPLDLNDDSEMVDNLSPLGNDENNNNRRLISGTVPNLELALGAEETTEATMGLLPFLSRSSNSGEQSNNSMNKEKQKADEEEEDDAEVAASLSLSLSFPGTEERKNVNTPLFLFRDLPR
B4: CPL2, epitope-tagged in transgenic Arabidopsis (enzyme, UniProt Q5YDB5 1-770)
chain: T2 sequence

Assays:
[1] = target: T1, AIPP3, full-length, yeast two-hybrid fusion (Arabidopsis); assay: two-hybrid; yeast two-hybrid, AD (pGADT7) and BD (pGBKT7) constructs, growth on SD -LW or -LWH plates, 30 °C, 3 d
[2] = target: T2, CPL2, full-length, yeast two-hybrid fusion (Arabidopsis); assay: as above
[3] = target: T3, ASI1-IMMUNO… PROTEIN 3 (AIPP3), epitope-tagged in transgenic Arabidopsis (Arabidopsis); assay: SEC; gel filtration of total proteins of seedlings expressing AIPP3-FLAG, AIPP2-4MYC, PAIPP2-3FLAG and CPL2-4MYC in IP buffer on Superdex 200 10/300GL; fractions read by western blotting

| binding [1] | binding [2] | binding [3] | Binder |
| --- | --- | --- | --- |
| binds | binds | – | B1 |
| – | – | binds | B2 |
| – | – | binds | B3 |
| – | – | binds | B4 |

Reference: publication PMC7718874, “Coupling of H3K27me3 recognition with transcriptional repression through the BAH-PHD-CPL2 complex in Arabidopsis” (Nature Communications, 2020)
